# Laboratory results: patent US10563263B2, “Genetic polymorphisms associated with statin response and cardiovascular diseases, methods of detection and uses thereof” (CELERA CORPORATION, priority 2010, dated 2020)
# Further values from the same series stand in other lists.
# Test system: CHD (fatal CHD, definite non-fatal MI, or revascularization)
# Experiment: CARE: SNP by pravastatin treatment interaction, logistic regression (synergy index), CHD endpoint
# Type: in vivo, human
# Text: CARE was a secondary prevention trial and WOSCOPS was a primary prevention trial.
# The CHD endpoint was defined in the analyses herein of CARE as a composite endpoint of fatal CHD, definite non-fatal MI, or revascularization, and was defined in the analyses herein of WOSCOPS as a composite endpoint of death from CHD, nonfatal MI, or revascularization. In both the CARE and WOSCOPS analyses herein, the CVD endpoint was defined as a composite endpoint of CHD or stroke. […] Revascularization, which can include percutaneous transluminal coronary angioplasty (PTCA), stent placement, and coronary artery bypass graft (CABG), are medical interventions that indicate the presence of CHD.
# Cohort and case-only study designs were used to identify SNPs associated with response to statin treatment.
# For each SNP, a logistic regression model having treatment status as the dependent variable and SNP as the independent predictor variable was performed, with terms for age, sex and race included in the model as covariates. The anti-log of the regression coefficient corresponding to the SNP is an estimate of the synergy index (SI) (Davis et al., “Imputing gene-treatment interactions when the genotype distribution is unknown using case-only and putative placebo analyses-a new method for the Genetics of Hypertension Associated Treatment (GenHAT) study”, Statistics in Medicine 23: (2004), pages 2413-2427). The SI is a ratio of odds ratios: for example in the CARE and WOSCOPS studies, the SI represents the factor by which the odds-ratio of statin treatment, compared with placebo, among major homozygous individuals is multiplied by in order to obtain the odds-ratio of treatment vs. placebo among heterozygous individuals; and multiplied by a second time to obtain the odds-ratio of treatment vs. placebo in minor homozygous individuals. The case-only study design results in a valid estimate of the SI under the assumption that genotype and treatment are independent in the population. In a randomized clinical trial, genotype and treatment are independent by design. The p-value for the regression coefficient corresponding to the SNP results from a test of the null hypothesis that the regression coefficient is equal to zero (SI is equal to one) and thus small p-values indicate the SI is unlikely equal to one and that the effect of treatment likely differs by genotype.
# A case-only study design was used to test whether the reduction of CHD events by statin therapy (for CARE and WOSCOPS studies) differed according to genotype (a treatment by SNP interaction) for each SNP evaluated in the study.
smiles,measurement,setting,value
"CC[C@H](C)C(=O)O[C@H]1C[C@H](O)C=C2C=C[C@H](C)[C@H](CC[C@@H](O)C[C@@H](O)CC(=O)O)[C@H]21 [Pravastatin, pravastatin]",OR,"rs9813552, allele G, ADD model, Imputed, NMISS 673",0.487
same,OR,"rs9813552, allele G, DOM model, Imputed, NMISS 673",0.472
same,OR,"rs9815037, allele T, ADD model, Imputed, NMISS 682",0.482
same,OR,"rs9815037, allele T, DOM model, Imputed, NMISS 682",0.467
same,OR,"rs9825349, allele A, ADD model, Imputed, NMISS 682",0.482
same,OR,"rs9825349, allele A, DOM model, Imputed, NMISS 682",0.467
same,OR,"rs9834217, allele T, ADD model, Imputed, NMISS 681",0.483
same,OR,"rs9834217, allele T, DOM model, Imputed, NMISS 681",0.468
same,OR,"rs9840460, allele T, ADD model, Imputed, NMISS 682",0.482
same,OR,"rs9840460, allele T, DOM model, Imputed, NMISS 682",0.467
same,OR,"rs9840756, allele A, ADD model, Imputed, NMISS 682",0.482
same,OR,"rs9840756, allele A, DOM model, Imputed, NMISS 682",0.467
same,OR,"rs9844801, allele C, DOM model, Imputed, NMISS 682",1.705
same,CARE OR,"rs9859901 allele A vs C (ref), Source cohort",0.59
same,OR,"rs9869187, allele C, ADD model, Imputed, NMISS 681",0.488
same,OR,"rs9869187, allele C, DOM model, Imputed, NMISS 681",0.497
same,OR,"rs9872327, allele T, DOM model, Imputed, NMISS 682",1.705
same,OR,"rs9881685, allele A, ADD model, Imputed, NMISS 682",0.481
same,OR,"rs9881685, allele A, DOM model, Imputed, NMISS 682",0.466
same,CARE OR,"rs9896077 allele G vs A (ref), Source cohort",0.63
same,OR,"rs9909499, allele C, DOM model, Imputed, NMISS 668",1.42
same,OR,"rs9911847, allele G, DOM model, Imputed, NMISS 680",0.668
same,OR,"rs9946886, allele G, REC model, Imputed, NMISS 232",0.3
same,OR,"rs9958823, allele A, ADD model, Imputed, NMISS 679",1.579
same,OR,"rs9965248, allele T, ADD model, Imputed, NMISS 671",1.556
same,OR,"rs10021016 allele G, REC, Genotyped",2.242
same,OR,"rs10051148, allele C, DOM, Imputed",0.6544
same,OR,"rs10054055, allele T, DOM, Imputed",0.6617
same,OR,"rs10067895, allele A, DOM, Imputed",0.6716
same,OR,"rs10100725 allele C, DOM, Imputed",0.5483
same,CARE OR,"rs10106852, A1 (non-ref) G, A2 (ref) A",1.40
same,OR,"rs10128531 allele T, ADD, Imputed",1.482
same,CARE OR,"rs10155047 allele A vs G (ref), Source cohort",0.59
same,OR,"rs10181743 allele G, ADD, Imputed",1.488
same,OR,"rs10199127 allele T, DOM, Imputed",1.486
same,OR,"rs10270624 allele G, DOM, Imputed",1.438
same,CARE OR,"rs10305439 allele A vs C (ref), Source cohort",0.62
same,CARE OR,"rs10429616 allele G vs A (ref), Source cohort",2.07
same,OR,"rs10430870 allele G, REC, Genotyped",2.178
same,CARE OR,"rs10444402 allele G vs A (ref), Source cohort",0.71
same,CARE OR,"rs10460737, A1 (non-ref) A, A2 (ref) G",0.43
same,OR,"rs10469597 allele A, REC, Imputed",2.519
same,OR,"rs10478919, allele G, DOM, Imputed",0.6489
same,CARE OR,"rs10494924 allele C vs A (ref), Source cohort",0.61
same,OR,"rs10506623, allele C, DOM, Imputed",0.6128
same,OR,"rs10506623 allele C, ADD, Imputed",0.7349
same,OR,"rs10506626, allele A, DOM, Imputed",0.5922
same,OR,"rs10506626 allele A, ADD, Imputed",0.7463
same,OR,"rs10509477 allele T, DOM, Imputed",1.654
same,OR,"rs10517918 allele G, REC, Imported",1.697
same,OR,"rs10517924 allele A, REC, Imputed",1.803
same,OR,"rs10519362 allele G, DOM, Imputed",1.5
same,OR,"rs10520072, allele T, DOM, Imputed",0.6617
same,OR,"rs10737390, allele T, DOM, Imputed",0.5772
same,OR,"rs10742851 allele T, REC, Imputed",0.406
same,OR,"rs10743685 allele G, REC, Imputed",1.943
same,OR,"rs10749293, allele G, DOM, Imputed",1.637
same,OR,"rs10749294 allele A, DOM, Imputed",1.575
same,OR,"rs10753760, allele T, ADD, Imputed",1.391
same,OR,"rs10772362 allele T, ADD, Imputed",0.6338
same,OR,"rs10784891, allele C, ADD, Imputed",0.7164
same,OR,"rs10784891, allele C, DOM, Imputed",0.631
same,OR,"rs10787923, allele G, DOM, Imputed",1.647
same,OR,"rs10787924 allele T, DOM, Imputed",1.585
same,OR,"rs10787949, allele A, DOM, Imputed",1.634
same,OR,"rs10787951, allele G, DOM, Imputed",1.634
same,OR,"rs10787983, allele C, DOM, Imputed",1.614
same,OR,"rs10794733 allele C, ADD, Imputed",0.765
same,CARE OR,"rs10817479, A1 (non-ref) A, A2 (ref) G",1.83
same,OR,"rs10818280 allele C, DOM, Imputed",0.7042
same,OR,"rs10860586 allele A, ADD, Imputed",1.322
same,OR,"rs10870473 allele A, ADD, Imputed",0.54
same,OR,"rs10870473 allele A, DOM, Imputed",0.4734
same,OR,"rs10879240, allele C, ADD, Imputed",0.7324
